Data as given in patent publication US6911526B2, “Compounds that inhibit the interaction between signal-transducing proteins and the GLGF (PDZ/DHR) domain and uses thereof” (The Trustees of Columbia University in the City of New York, priority 1996, dated 2005).
Results are given in words; binding and its absence hold for the method and conditions named. For part of these data: In cells and extracts the contact can be indirect. Some entries that bind do so weakly or less than the wild type. Blank lines part the entries; values can stand above or below the substance they belong to.

Protein sequences, listed by entry. Tags and fused reporters are not part of them. Residues count along the entry.
in vitro-translated 35S-labeled FAP-1 (from HFAP-10 cDNA) (Q12923, residues 1279-1883): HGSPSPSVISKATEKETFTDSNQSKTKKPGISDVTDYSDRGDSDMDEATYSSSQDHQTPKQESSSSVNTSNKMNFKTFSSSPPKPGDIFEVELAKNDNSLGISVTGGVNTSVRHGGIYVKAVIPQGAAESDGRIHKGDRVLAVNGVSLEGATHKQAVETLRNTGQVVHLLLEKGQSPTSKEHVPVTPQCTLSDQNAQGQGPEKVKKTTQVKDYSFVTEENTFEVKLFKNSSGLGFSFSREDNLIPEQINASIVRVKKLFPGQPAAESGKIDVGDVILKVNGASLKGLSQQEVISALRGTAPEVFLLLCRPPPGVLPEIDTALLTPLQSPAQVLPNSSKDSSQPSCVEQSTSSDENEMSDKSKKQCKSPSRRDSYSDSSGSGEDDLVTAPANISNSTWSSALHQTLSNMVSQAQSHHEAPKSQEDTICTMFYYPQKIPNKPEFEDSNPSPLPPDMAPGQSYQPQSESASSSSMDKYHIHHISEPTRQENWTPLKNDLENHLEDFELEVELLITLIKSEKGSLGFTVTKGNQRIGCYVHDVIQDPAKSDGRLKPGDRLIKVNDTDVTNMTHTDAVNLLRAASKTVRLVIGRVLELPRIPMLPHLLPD
FAP-1 expressed from plasmid pVP16-31 (VP16 fusion, yeast two-hybrid prey) (Q12923, residues 1350-1470): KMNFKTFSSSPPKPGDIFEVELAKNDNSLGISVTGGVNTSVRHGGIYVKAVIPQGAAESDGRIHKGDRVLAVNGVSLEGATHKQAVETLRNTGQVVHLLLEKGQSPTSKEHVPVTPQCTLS
UniProt P25445, residues 26-335: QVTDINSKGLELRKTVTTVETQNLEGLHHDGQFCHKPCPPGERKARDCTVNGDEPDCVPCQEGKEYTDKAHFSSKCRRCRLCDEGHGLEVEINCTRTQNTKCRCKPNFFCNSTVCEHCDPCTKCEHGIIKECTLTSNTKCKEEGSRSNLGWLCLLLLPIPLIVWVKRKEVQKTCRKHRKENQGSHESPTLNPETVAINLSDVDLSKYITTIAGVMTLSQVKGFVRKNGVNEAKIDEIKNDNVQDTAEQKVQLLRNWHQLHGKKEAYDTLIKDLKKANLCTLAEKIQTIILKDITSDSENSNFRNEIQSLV

Legend:
[1] = biological target: in vitro-translated 35S-labeled FAP-1 (from HFAP-10 cDNA) (UniProt Q12923); assay: GST pull-down of in vitro-translated 35S FAP-1
[2] = biological target: native Fas from cell extracts of Jurkat T-cells (UniProt P25445); assay: GST-FAP-1 pull-down from Jurkat cell extracts, Western analysis with anti-Fas antibody
[3] = biological target: FAP-1 expressed from plasmid pVP16-31 (VP16 fusion, yeast two-hybrid prey) (UniProt Q12923); assay: yeast two-hybrid with pVP16-FAP-1

binding [1]: binds
Substance: GST-SLV (from UniProt P08515 1-218)

binding [2]: binds
Substance: GST-FAP-1 (from UniProt P08515 1-218; Q12923 1279-1883)

Substance: LexA-SLV fusion protein (from UniProt P0A7C2 1-202)
binding [3]: binds
